Binding data for three molecules are collected here from publication PMC6069705.

No constants are given. Whether binding was seen depends on the method and setting. Binding seen in cells or lysates may run through a third protein. These calls come from enrichment with a bait or labelling near it, and not all partners need be listed.

The assay deals with human tau P301L 4R0N (rTg4510 transgene) (human). The assay can be described thus: affinity purification with mass spectrometry; tau immunoprecipitated from 1 mg cortex lysate (RIPA buffer) of 2.5 month old induced or uninduced (doxycycline) rTg4510 mice with 10 ug Tau13 immobilised on Pierce Direct IP columns; eluates run on a gel, LC-MS/MS; proteins pulled down from MAPT-/- mice removed; n = 4/group.

B1: hnRNPL (protein, UniProt Q8R081 1-586)
chain: MSRRLLPRAEKRRRRLEQRQQPDEQLRRAGAMVKMAAAGGGGGGGRYYGGGNEGGRAPKRLKTENAGDQHGGGGGGGSGAAGGGGGENYDDPHKTPASPVVHIRGLIDGVVEADLVEALQEFGPISYVVVMPKKRQALVEFEDVLGACNAVNYAADNQIYIAGHPAFVNYSTSQKISRPGDSDDSRSVNSVLLFTILNPIYSITTDVLYTICNPCGPVQRIVIFRKNGVQAMVEFDSVQSAQRAKASLNGADIYSGCCTLKIEYAKPTRLNVFKNDQDTWDYTNPNLSGQGDPGSNPNKRQRQPPLLGDHPAEYGGPHGGYHSHYHDEGYGPPPPHYEGRRMGPPVGGHRRGPSRYGPQYGHPPPPPPPPDYGPHADSPVLMVYGLDQSKMNCDRVFNVFCLYGNVEKVKFMKSKPGAAMVEMADGYAVDRAITHLNNNFMFGQKMNVCVSKQPAIMPGQSYGLEDGSCSYKDFSESRNNRFSTPEQAAKNRIQHPSNVLHFFNAPLEVTEENFFEICDELGVKRPTSVKVFSGKSERSSSGLLEWDSKSDALETLGFLNHYQMKNPNGPYPYTLKLCFSTAQHAS
As for B1, the binding result was “binds”.

B2: hnRNPR (protein, UniProt Q8VHM5 1-632)
chain: MANQVNGNAVQLKEEEEPMDTSSVTHTEHYKTLIEAGLPQKVAERLDEIFQTGLVAYVDLDERAIDALREFNEEGALSVLQQFKESDLSHVQNKSAFLCGVMKTYRQREKQGSKVQESTKGPDEAKIKALLERTGYTLDVTTGQRKYGGPPPDSVYSGVQPGIGTEVFVGKIPRDLYEDELVPLFEKAGPIWDLRLMMDPLSGQNRGYAFITFCGKEAAQEAVKLCDSYEIRPGKHLGVCISVANNRLFVGSIPKNKTKENILEEFSKVTEGLVDVILYHQPDDKKKNRGFCFLEYEDHKSAAQARRRLMSGKVKVWGNVVTVEWADPVEEPDPEVMAKVKVLFVRNLATTVTEEILEKSFSEFGKLERVKKLKDYAFVHFEDRGAAVKAMDEMNGKEIEGEEIEIVLAKPPDKKRKERQAARQASRSTAYEDYYYHPPPRMPPPMRGRGRGGRGGYGYPPDYYGYEDYYDDYYGYDYHDYRGGYEDPYYGYDDGYAVRGRGGGRGGRGAPPPPRGRGAPPPRGRAGYSQRGAPLGPPRGSRGGRGGPAQQQRGRGSRGARGNRGGNVGGKRKADGYNQPDSKRRQTNNQQNWGSQPIAQQPLQQGGDYSGNYGYNNDNQEFYQDTYGQQWK
In the case of B2, the binding result is “binds”.

B3: HNRNPA0 (protein, UniProt Q9CX86 1-305)
chain: MENSQLCKLFIGGLNVQTSESGLRGHFEAFGTLTDCVVVVNPQTKRSRCFGFVTYSNVEEADAAMAASPHAVDGNTVELKRAVSREDSARPGAHAKVKKLFVGGLKGDVAEGDLIEHFSQFGAVEKAEIIADKQSGKKRGFGFVYFQSHDAADKAAVVKFHPIQGHRVEVKKAVPKEDIHAGGGGARAARGGRGGGRGRGGGGGGGGRDQNGLAKGGGGGGGGYNSYGGYGGYGAYGGGGGGGGSYGGSDYGNGFGGFGSYSQHQSSYGPMKSGGGGGGGGSWGGRSNSGPYRGGYGGGYGGGSF
Regarding B3, the binding entry was “binds”.
